From paper doi:10.1101/2025.03.01.640964
Results are given in words; binding and its absence hold for the method and conditions named.

Target: SteC_(210-429;K256H) (Salmonella Typhimurium strain 14028s) (UniProt D0ZIB5)
Assay: SEC-MALLS

Substance: SteC_(210-429;K256H) (from UniProt D0ZIB5 210-429) (domain or fragment)
- binding: no binding (tested: 8 mg/ml)
